Assay results reported in patent publication US4778799A, “Synergistic combination of flupirtin and non-steroidal antiphlogistic” (priority 1985, dated 1988).

Experiment: Acetic Acid-Writhing Test according to Koster et al., analgetic activity, per os
Type: in vivo, white mouse (NMRI-Mouse)
Details: Mus musculus, po, 0.5 h, substance alone, 30 minutes after giving, linear regression
Description: These investigations were carried out in the Acetic Acid Test (Writhing Test) on the white mouse.
Writhing According to Koster et al; Fed.
(§1) Animal: White Mouse (NMRI-Mouse); Application: per os
Writhing Test According to Koster et al.: Fed.
as §1
The pain reaction is expressed as a characteristic stretching of the animals ("writhing syndrome") which persists in irregular time intervals for a long period of time after the injection of the acetic acid. The dosage dependent suppression of the frequency of the stretching motion compared to an untreated control group is expressed in percent as analgetic effect. The evaluation is carried out by determination of the ED50 (Method of Linear Regression).
The acetic acid test is marked by the fact that not only is there detectable the effect of strong, central acting analgetics but also preponderantly peripherally acting analgetics-antipyretics and antiphlogistically active pharmaceuticals such as phenyl butazone, Indometacin and others. Therewith the effect in this procedure refers to a peripheral component of the analgesic.

**Q.** For COc1ccc2cc([C@H](C)C(=O)O)ccc2c1 [Naproxen], which ED50 is on record?
**A.** 2.62 mg/kg
